Article PMC6694678

The chains behind the UniProt entries cited, without tags or fusion partners.
UniProt P01100, whole entry: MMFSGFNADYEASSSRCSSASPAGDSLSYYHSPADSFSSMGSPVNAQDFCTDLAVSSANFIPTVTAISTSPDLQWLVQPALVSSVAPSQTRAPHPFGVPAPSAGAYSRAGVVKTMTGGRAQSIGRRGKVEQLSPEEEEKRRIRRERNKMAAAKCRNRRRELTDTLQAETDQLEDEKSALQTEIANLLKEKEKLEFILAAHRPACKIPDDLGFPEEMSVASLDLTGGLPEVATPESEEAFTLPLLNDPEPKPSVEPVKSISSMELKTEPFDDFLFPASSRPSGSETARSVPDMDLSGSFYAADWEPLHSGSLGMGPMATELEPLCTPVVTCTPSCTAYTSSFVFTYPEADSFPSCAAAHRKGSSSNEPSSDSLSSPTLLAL

Legend:
[1] = molecular target: c-Fos (AP-1 complex in HeLa nuclear extract) (UniProt P01100); assay: EMSA supershift; conditions: anti-c-Fos, faint supershift, self competition 1000x leaves some signal in HeLa; EMSA: nuclear extract (NE-PER), 4 C, 30 min, chemiluminescent kit; 7% native PAGE, 0.5x TBE; binding buffer, salt and pH not stated; protein in an extract; label: 5'-biotin
[2] = molecular target: c-Fos (AP-1 complex in SiHa nuclear extract) (UniProt P01100); assay: EMSA supershift; conditions: anti-c-Fos, faint supershift, complex competed by 1000x self; EMSA: nuclear extract (NE-PER), 4 C, 30 min, chemiluminescent kit; 7% native PAGE, 0.5x TBE; binding buffer, salt and pH not stated; protein in an extract; label: 5'-biotin

| Sequence | binding result [1] | binding result [2] |
| --- | --- | --- |
| TGGATAAGGATGACGCACAGATTGTCC (double strand) [AP1M] | binds | binds |
| TGTTAATCACTGACTTCTGACTAGTGG (double strand) [AP1D] | binds | binds |
| TTACTAGGGATGACACAAGCATAAGTCATTT / AAATGACTTATGCTTGTGTCATCCCTAGTTA [AP1P] | binds | binds |

The exact form of at least one protein or probe is not confirmed. At least one result comes from cells or an extract, where the contact may be indirect. At least one verdict rests on a figure or table, not on a statement of the authors.
